The results in this text go back to paper PMC11039524.

The chains behind the UniProt entries cited, without tags or fusion partners.
UniProt Q15370: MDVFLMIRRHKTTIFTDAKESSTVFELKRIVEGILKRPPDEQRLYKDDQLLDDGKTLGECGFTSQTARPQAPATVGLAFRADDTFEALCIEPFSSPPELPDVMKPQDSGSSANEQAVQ
UniProt Q8N726: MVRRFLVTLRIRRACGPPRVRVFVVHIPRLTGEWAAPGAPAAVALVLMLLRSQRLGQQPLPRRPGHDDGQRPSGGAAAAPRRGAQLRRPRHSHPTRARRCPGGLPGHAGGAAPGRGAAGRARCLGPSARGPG

The target of this experiment is Elongin B (human (endogenous in MDA-MB-231)) (UniProt Q15370). Put plainly: co-IP; endogenous proteins; MDA-MB-231 cells pretreated with MG-132 for 2 h; NP-40 lysis buffer (50 mM Tris-HCl pH 7.5, 150 mM NaCl, 0.5% NP-40, 1 mM PMSF); lysate incubated with anti-ELOB antibody or control IgG overnight at 4°C, protein A/G magnetic beads; immunoblot with anti-p14/ARF.

These are yes or no findings as the source states them, for the method shown. Binding seen in cells or lysates may run through a third protein. Some results given as binding are weak or reduced against the parent protein; the word gives no strength.

For the substance p14/ARF (from UniProt Q8N726 1-132), the binding entry is given as “binds”.
